The supplement of paper PMC12823440, “Inhibitors supercharge kinase turnover through native proteolytic circuits” (Nature, 2025)
The other results are listed elsewhere or left out. The calls rarely recur for the same compound in another form.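 Kinases were expressed as nanoluciferase fusions in K562 cells and luminescence was read every 4 h between 2 and 18 h as percent of control, DMSO set to 100% and a positive control to 0%. A time point counts as decreased when the signal drops significantly (2 sigma). The hit call is the authors' own, does not follow from the count of time points alone, and its rule is not shown.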

Chains of the proteins cited; added tags and fusions are not shown. Lines headed by an entry give the natural chain unless they say otherwise; changes in a name come on top.
UniProt P29317, whole entry: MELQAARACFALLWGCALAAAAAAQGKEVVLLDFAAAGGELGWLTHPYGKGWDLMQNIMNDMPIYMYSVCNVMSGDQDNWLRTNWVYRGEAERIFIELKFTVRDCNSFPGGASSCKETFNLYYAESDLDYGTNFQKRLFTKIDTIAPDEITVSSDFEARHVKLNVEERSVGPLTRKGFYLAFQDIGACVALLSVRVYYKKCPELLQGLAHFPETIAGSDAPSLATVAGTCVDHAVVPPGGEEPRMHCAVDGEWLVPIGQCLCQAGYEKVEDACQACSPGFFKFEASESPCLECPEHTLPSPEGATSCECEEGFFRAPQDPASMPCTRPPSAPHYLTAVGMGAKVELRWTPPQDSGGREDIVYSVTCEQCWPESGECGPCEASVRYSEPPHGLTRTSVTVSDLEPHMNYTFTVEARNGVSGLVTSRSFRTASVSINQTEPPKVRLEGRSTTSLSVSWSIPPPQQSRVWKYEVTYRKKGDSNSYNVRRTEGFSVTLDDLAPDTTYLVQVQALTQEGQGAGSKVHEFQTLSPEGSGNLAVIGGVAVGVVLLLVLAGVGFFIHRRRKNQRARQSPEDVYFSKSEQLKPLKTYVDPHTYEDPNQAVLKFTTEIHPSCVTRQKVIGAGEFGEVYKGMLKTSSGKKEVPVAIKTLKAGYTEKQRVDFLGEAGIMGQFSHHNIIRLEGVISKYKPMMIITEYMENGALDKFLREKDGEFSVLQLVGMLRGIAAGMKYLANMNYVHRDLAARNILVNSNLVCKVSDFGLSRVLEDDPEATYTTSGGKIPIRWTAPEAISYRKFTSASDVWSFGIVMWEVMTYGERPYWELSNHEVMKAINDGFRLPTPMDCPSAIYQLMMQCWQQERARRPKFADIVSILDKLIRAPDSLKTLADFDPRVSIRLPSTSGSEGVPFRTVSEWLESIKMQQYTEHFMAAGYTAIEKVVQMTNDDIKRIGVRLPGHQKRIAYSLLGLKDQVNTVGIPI
UniProt P21860, whole entry: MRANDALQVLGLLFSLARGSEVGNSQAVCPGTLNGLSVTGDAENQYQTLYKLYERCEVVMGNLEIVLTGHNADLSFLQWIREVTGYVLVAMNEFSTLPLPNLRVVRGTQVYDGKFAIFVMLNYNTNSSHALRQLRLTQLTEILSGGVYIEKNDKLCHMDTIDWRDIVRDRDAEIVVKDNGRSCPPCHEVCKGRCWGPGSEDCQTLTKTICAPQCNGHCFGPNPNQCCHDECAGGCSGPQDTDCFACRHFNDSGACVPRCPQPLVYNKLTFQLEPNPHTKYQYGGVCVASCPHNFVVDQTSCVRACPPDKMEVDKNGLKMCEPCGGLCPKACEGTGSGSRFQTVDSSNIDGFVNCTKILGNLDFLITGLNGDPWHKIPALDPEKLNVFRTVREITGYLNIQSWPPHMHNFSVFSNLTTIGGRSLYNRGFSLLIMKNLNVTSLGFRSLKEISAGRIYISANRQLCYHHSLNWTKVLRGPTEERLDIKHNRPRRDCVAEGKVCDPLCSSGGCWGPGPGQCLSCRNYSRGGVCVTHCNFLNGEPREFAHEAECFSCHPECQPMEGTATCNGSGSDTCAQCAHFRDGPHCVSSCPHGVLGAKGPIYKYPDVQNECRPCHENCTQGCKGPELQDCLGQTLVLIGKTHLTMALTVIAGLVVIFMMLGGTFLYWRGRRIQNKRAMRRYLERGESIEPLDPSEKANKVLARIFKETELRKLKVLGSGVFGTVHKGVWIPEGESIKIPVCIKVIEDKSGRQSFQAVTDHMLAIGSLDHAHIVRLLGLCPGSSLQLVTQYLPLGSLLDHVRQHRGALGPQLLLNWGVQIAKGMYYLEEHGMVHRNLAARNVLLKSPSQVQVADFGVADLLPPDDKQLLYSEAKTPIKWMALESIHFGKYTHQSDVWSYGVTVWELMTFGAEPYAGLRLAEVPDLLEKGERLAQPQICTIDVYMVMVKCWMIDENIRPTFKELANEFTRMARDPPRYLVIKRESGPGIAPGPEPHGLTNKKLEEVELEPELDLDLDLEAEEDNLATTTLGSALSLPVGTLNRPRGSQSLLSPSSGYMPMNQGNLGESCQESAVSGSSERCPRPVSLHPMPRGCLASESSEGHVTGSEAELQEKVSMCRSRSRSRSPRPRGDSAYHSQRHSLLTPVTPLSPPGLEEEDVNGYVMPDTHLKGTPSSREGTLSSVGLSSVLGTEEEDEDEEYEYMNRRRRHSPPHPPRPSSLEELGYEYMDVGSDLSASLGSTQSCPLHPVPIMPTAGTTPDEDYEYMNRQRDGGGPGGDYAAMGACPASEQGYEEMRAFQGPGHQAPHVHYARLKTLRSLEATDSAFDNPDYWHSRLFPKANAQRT
UniProt Q15303, whole entry R711C: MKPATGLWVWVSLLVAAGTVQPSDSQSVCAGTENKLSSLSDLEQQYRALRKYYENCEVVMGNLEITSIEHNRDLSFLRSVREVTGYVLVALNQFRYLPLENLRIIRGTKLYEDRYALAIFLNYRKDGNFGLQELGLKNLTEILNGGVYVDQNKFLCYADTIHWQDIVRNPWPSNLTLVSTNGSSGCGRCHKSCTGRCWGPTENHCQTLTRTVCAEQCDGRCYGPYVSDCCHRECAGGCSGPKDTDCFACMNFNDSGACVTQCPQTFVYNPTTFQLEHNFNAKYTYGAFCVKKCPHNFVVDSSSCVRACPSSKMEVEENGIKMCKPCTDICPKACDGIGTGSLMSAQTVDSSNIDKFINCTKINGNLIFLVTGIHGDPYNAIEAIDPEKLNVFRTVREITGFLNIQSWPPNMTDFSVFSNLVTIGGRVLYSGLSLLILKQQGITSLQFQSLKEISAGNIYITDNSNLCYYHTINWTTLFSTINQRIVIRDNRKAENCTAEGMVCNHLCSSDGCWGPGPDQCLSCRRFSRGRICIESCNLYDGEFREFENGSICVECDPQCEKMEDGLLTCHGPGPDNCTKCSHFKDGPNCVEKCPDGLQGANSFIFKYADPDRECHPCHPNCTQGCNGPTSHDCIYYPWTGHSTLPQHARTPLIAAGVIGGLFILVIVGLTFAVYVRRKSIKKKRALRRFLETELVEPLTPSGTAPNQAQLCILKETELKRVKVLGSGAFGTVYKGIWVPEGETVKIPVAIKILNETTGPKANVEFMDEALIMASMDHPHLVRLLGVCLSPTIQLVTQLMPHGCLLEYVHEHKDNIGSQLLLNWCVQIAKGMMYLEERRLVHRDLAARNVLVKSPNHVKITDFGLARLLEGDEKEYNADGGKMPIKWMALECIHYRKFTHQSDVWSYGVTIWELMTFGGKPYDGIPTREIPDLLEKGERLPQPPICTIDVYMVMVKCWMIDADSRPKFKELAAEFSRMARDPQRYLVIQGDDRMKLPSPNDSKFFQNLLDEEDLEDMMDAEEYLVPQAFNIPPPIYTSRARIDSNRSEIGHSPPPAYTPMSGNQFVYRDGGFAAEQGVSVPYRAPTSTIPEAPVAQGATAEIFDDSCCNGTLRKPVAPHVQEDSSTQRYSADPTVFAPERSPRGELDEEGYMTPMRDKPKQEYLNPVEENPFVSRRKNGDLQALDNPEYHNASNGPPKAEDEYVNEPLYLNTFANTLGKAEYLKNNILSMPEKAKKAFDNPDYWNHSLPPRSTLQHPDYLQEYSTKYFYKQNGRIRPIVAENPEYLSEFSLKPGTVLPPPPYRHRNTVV
UniProt O75460: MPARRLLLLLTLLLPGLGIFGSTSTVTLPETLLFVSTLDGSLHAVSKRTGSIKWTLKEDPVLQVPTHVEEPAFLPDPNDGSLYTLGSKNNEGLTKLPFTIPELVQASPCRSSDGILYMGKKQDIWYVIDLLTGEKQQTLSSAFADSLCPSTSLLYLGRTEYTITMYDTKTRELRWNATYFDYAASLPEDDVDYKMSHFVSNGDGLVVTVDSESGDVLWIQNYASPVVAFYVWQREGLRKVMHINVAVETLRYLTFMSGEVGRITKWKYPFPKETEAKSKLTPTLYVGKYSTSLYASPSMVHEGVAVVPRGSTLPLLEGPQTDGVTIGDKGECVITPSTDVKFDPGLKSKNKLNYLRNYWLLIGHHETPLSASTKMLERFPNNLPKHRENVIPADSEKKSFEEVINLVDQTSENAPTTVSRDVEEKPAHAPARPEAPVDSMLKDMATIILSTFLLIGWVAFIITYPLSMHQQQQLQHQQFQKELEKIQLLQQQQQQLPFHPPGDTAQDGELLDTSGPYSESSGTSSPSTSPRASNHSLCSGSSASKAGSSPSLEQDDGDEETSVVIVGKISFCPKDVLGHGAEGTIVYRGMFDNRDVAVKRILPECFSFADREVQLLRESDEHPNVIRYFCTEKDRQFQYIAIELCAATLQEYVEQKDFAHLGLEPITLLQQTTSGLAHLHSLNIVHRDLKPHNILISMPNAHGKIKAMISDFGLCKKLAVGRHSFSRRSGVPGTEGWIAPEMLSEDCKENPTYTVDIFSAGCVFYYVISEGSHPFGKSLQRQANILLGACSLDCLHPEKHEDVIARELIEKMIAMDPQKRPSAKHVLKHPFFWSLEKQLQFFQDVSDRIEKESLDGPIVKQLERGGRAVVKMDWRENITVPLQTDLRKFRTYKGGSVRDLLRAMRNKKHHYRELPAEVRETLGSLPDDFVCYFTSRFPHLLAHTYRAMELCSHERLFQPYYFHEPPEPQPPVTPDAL
UniProt P22607, whole entry, looked up: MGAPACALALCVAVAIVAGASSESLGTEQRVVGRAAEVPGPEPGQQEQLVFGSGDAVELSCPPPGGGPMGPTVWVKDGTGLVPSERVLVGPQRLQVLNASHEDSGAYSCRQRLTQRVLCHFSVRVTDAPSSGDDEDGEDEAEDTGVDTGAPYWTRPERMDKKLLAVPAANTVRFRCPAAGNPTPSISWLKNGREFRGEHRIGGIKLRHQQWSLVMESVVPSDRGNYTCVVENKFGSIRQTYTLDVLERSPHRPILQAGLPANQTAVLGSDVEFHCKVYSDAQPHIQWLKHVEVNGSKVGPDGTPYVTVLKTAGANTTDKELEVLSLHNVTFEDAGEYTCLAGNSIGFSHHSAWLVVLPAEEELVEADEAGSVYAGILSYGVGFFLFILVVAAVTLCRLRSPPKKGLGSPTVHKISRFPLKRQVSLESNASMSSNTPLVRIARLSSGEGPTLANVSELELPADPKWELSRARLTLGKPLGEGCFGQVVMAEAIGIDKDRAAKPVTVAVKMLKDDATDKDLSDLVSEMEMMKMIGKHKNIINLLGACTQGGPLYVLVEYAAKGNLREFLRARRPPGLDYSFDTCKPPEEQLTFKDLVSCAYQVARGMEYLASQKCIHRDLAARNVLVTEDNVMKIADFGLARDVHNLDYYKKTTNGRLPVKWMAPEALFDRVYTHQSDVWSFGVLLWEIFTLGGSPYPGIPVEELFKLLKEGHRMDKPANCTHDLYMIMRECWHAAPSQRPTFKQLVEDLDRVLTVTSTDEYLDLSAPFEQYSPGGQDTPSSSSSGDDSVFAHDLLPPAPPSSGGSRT
UniProt P06241, whole entry, looked up: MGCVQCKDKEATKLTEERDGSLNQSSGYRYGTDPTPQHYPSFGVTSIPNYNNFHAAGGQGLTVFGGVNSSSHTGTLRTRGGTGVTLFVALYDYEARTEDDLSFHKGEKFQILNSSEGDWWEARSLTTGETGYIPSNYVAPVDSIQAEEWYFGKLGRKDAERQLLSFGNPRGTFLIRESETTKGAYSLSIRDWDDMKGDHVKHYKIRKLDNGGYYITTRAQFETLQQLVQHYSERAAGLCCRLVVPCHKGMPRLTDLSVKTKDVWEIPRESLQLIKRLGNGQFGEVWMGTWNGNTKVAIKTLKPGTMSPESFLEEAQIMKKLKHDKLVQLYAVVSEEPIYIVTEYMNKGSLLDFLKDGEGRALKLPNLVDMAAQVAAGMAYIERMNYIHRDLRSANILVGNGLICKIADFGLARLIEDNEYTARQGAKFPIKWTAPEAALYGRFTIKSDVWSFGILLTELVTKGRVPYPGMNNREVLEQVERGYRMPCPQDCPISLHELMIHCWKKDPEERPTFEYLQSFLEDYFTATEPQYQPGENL
UniProt P49840: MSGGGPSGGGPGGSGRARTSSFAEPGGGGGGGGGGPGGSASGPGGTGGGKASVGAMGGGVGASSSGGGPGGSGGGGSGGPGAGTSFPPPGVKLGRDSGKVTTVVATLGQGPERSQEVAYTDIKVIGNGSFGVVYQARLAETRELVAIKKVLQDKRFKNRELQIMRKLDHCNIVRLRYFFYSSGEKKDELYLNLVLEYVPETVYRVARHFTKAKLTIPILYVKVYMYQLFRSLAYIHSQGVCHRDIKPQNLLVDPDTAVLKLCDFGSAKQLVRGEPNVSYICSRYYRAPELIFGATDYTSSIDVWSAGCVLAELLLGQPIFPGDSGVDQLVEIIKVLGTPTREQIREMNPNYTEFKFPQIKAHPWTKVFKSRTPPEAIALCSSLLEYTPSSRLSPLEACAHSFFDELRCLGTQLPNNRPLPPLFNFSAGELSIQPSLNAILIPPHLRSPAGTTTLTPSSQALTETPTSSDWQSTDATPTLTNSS

Experiments:
Assay in all cases: kinase-Nluc reporter destabilization hit call (1 = scored as downregulated) (binary); higher = compound decreases kinase abundance
Conditions in all cases: K562, 2-18 h
[1] = target: EGFR (UniProt P00533)
[2] = target: EGFR_G719S (UniProt P00533)
[3] = target: EGFR_G719S_T790M (UniProt P00533)
[4] = target: EGFR_L718V (UniProt P00533)
[5] = target: EGFR_L858R (UniProt P00533)
[6] = target: EGFR_L861Q (UniProt P00533)
[7] = target: EGFR_T790M (UniProt P00533)
[8] = target: EPHA2 (UniProt P29317)
[9] = target: ERBB3 (UniProt P21860)
[10] = target: ERBB4_R711C (clone: ERBB4_mut) (UniProt Q15303)
[11] = target: ERN1 (UniProt O75460)
[12] = target: FGFR1 (UniProt P11362)
[13] = target: FGFR2 (UniProt P21802)
[14] = target: FGFR3 (UniProt P22607)
[15] = target: FGR (UniProt P09769)
[16] = target: FLT3 (UniProt P36888)
[17] = target: FYN (UniProt P06241)
[18] = target: GSK3A (UniProt P49840)
[19] = target: HER2 (UniProt P04626)
[20] = target: INSRR (UniProt P14616)

Measured: kinase-Nluc reporter destabilization hit call

C=CC(=O)Nc1cc2c(Nc3ccc(F)c(Cl)c3)ncnc2cc1C#CC(C)(C)N1CCN(C)CC1 [AV-412 (free base)]
inactive: [1]; 2.5 µM 0 | [2]; 2.5 µM 0 | [3]; 2.5 µM 0 | [4]; 2.5 µM 0 | [5]; 2.5 µM 0 | [6]; 2.5 µM 0 | [7]; 2.5 µM 0 | [8]; 2.5 µM 0 | [9]; 2.5 µM 0 | [10]; 2.5 µM 0 | [11]; 2.5 µM 0 | [12]; 2.5 µM 0 | [13]; 2.5 µM 0 | [14]; 2.5 µM 0 | [15]; 2.5 µM 0 | [16]; 2.5 µM 0 | [17]; 2.5 µM 0 | [18]; 2.5 µM 0 | [20]; 2.5 µM 0
active: [19]; 2.5 µM 1

COc1cc2c(-c3cnn4cc(N5CCC(N6CCN(C)CC6)CC5)cnc34)ccnc2cc1F
inactive: [1]; 10 µM 0 | [2]; 10 µM 0 | [3]; 10 µM 0 | [4]; 10 µM 0 | [5]; 10 µM 0 | [6]; 10 µM 0 | [7]; 10 µM 0 | [8]; 10 µM 0 | [9]; 10 µM 0 | [10]; 10 µM 0 | [11]; 10 µM 0 | [12]; 10 µM 0 | [13]; 10 µM 0 | [14]; 10 µM 0 | [15]; 10 µM 0 | [16]; 10 µM 0 | [17]; 10 µM 0 | [18]; 10 µM 0 | [19]; 10 µM 0 | [20]; 10 µM 0

CC(C)NC[C@@H](C(=O)N1CCN(c2ncnc3c2[C@H](C)C[C@H]3O)CC1)c1ccc(Cl)cc1 [Ipatasertib]
inactive: [1]; 10 µM 0 | [2]; 10 µM 0 | [3]; 10 µM 0 | [4]; 10 µM 0 | [5]; 10 µM 0 | [6]; 10 µM 0 | [7]; 10 µM 0 | [8]; 10 µM 0 | [9]; 10 µM 0 | [10]; 10 µM 0 | [11]; 10 µM 0 | [12]; 10 µM 0 | [13]; 10 µM 0 | [14]; 10 µM 0 | [15]; 10 µM 0 | [16]; 10 µM 0 | [17]; 10 µM 0 | [18]; 10 µM 0 | [19]; 10 µM 0 | [20]; 10 µM 0

CCCCCCCCc1ccc(CCC(N)(CO)CO)cc1 [Fingolimod]
inactive: [1]; 2.5 µM 0 | [2]; 2.5 µM 0 | [3]; 2.5 µM 0 | [4]; 2.5 µM 0 | [5]; 2.5 µM 0 | [6]; 2.5 µM 0 | [7]; 2.5 µM 0 | [8]; 2.5 µM 0 | [9]; 2.5 µM 0 | [10]; 2.5 µM 0 | [11]; 2.5 µM 0 | [12]; 2.5 µM 0 | [13]; 2.5 µM 0 | [14]; 2.5 µM 0 | [15]; 2.5 µM 0 | [16]; 2.5 µM 0 | [17]; 2.5 µM 0 | [18]; 2.5 µM 0 | [19]; 2.5 µM 0 | [20]; 2.5 µM 0
